# In PMC5996148:
# Values joined by “and” are separate entries in the source; they are usually repeats but may differ in a detail not shown here. Equal entries are not always repeated. This is one part of the list.
# Tests used:
# Assay in all cases: protein microarray (ProtoArray v5.0), streptavidin-Alexa Fluor 647
# Conditions in all cases: 3'-biotin; 20 mM Tris (pH 7.5), 5 mM MgCl2, 100 mM KCl, 0.1% Tween-20, A/T-rich and random oligonucleotide blockers; temperature not stated; high values mean tight binding
# Protein ARMCX6 (human) = test system: Protein ARMCX6 (human)
# Protein BEAN (human) = test system: Protein BEAN (human)
# Protein BEX5 (human) = test system: Protein BEX5 (human)
# [1] = test system: Protein DDI1 homolog 1 (human)
# Protein DGCR6L (human) = test system: Protein DGCR6L (human)
# Protein Dom3Z (human) = test system: Protein Dom3Z (human)
# Protein Dr1 (human) = test system: Protein Dr1 (human)
# Protein FAM131B (human) = test system: Protein FAM131B (human)
# Protein FAM151A (human) = test system: Protein FAM151A (human)
# Protein FAM178B (human) = test system: Protein FAM178B (human)
# Protein FAM63B (human) = test system: Protein FAM63B (human)
# Protein FAM73B (human) = test system: Protein FAM73B (human)
# Protein NOXP20 (human) = test system: Protein NOXP20 (human)
# Protein Niban (human) = test system: Protein Niban (human)
# Protein OSCP1 (human) = test system: Protein OSCP1 (human)
# Protein PPRC1 (human) = test system: Protein PPRC1 (human)
# [2] = test system: Protein SCO2 homolog, mitochondrial (human)
# Protein TEX261 (human) = test system: Protein TEX261 (human)
# Protein URG4 (human) = test system: Protein URG4 (human)
# [3] = test system: Protein arginine N-methyltransferase 6 (human)
sequence,measurement,setting,value
GGGAGGCTGAGGCAGG [G4-1 biotinylated (PQS2)],binding signal,Protein ARMCX6 (human),-0.282 z-score
same,binding signal,Protein BEAN (human),-0.346 z-score
same,binding signal,Protein BEX5 (human),-0.358 z-score
same,binding signal,[1],-0.341 z-score
same,binding signal,Protein DGCR6L (human),-0.351 z-score
same,binding signal,Protein Dom3Z (human),-0.321 z-score
same,binding signal,Protein Dr1 (human),-0.376 z-score
same,binding signal,Protein FAM131B (human),-0.247 z-score
same,binding signal,Protein FAM151A (human),-0.312 z-score
same,binding signal,Protein FAM178B (human),-0.306 z-score
same,binding signal,Protein FAM63B (human),-0.362 z-score
same,binding signal,Protein FAM73B (human),-0.313 z-score
same,binding signal,Protein NOXP20 (human),-0.354 z-score
same,binding signal,Protein Niban (human),-0.334 z-score
same,binding signal,Protein OSCP1 (human),-0.343 z-score
same,binding signal,Protein PPRC1 (human),-0.357 z-score and -0.343 z-score
same,binding signal,[2],-0.272 z-score
same,binding signal,Protein TEX261 (human),-0.34 z-score
same,binding signal,Protein URG4 (human),-0.277 z-score
same,binding signal,[3],-0.333 z-score

# No new results follow: an excerpt of the list.
sequence,measurement,setting,value
GGGAGGCTGAGGCAGG [G4-1 biotinylated (PQS2)],binding signal,Protein OSCP1 (human),-0.343 z-score
same,binding signal,Protein PPRC1 (human),-0.357 z-score and -0.343 z-score
